# PubChem BioAssay AID1259415 (National Center for Advancing Translational Sciences (NCATS), 2018)
# About 18,000 (4.4%) of roughly 410,000 compounds were called active. This list was built around the results that the source calls inconclusive (neither active nor inactive); the mix of calls is not that of the screen. Rule as the data show it: active = activity change below about -60%; inconclusive = no clear call, values can overlap the other calls; inactive = above about -39%. Where a structure was tested more than once in an assay, its records may differ in their call.
# Assay: qHTS Assay for inhibitors of the human cytomegalovirus (HCMV)
# Details: HFF cells, HCMV-luciferase reporter, 72 h; at 57.5 µM; active compounds read low
# Summary of the method: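 Two compound doses tested in HFFs infected with HCMV-luciferase, MOI 1 PFU/cell, 72 h at 37C. Lysate luminescence read with OneGlo; data normalized against buffer-only and 10uM Salinomycin inhibitor controls.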
# % is scaled to controls: 0 for no effect and ±100 for the full control effect.
row,Compound,"activity change, negative = inhibition"
1,CN(c1ccccc1)S(=O)(=O)c1cccc(NC(=O)CSc2ncn[nH]2)c1,active: -68.2%
2,O=C(CCCn1c(=S)[nH]c2cc3c(cc2c1=O)OCO3)N1CCN(c2ccccc2F)CC1,inactive: 44.5%
3,CCOc1ccc(N2CC(C(=O)Nc3ccc(F)cc3F)CC2=O)cc1 (centres undefined),active: -102%
4,Cc1coc2c(O)cc3c(c12)OC1(N2CCCCC2)C(=O)NCCCC31 (centres undefined),inconclusive: -56.7%
5,CCC(C)(C)NC(=O)C(c1ccc(F)cc1)N(Cc1ccc(OC)cc1)C(=O)c1cnccn1 (centres undefined),active: -66.1%
6,CCOCCn1c(CN(C)Cc2ccccc2)nc2c1c(=O)n(C)c(=O)n2C,inactive: 18.9%
7,Cc1nn(C)cc1C(C(=O)NC1CCCCC1)N(C(=O)Cc1cccs1)c1ccc(Cl)cc1 (centres undefined),inconclusive: -47.3%
8,O=[N+]([O-])c1cnn(-c2nc(-c3ccco3)cc(C(F)(F)F)n2)c1,active: -96.5%
9,O=C(OCc1ccc(COC(=O)c2ccccn2)cc1)c1ccccn1,inactive: 11.5%
10,COc1ccccc1/C=C/c1nc(S(=O)(=O)c2ccccc2)c(NCCN(C)C)o1,inactive: -0.58%
11,Cc1[nH]c2ccccc2c1/C=N/Nc1nc(Nc2ccc(F)cc2)nc(N2CCOCC2)n1,inactive: -8.83%
12,CC[C@@H](C)[C@H](CN[C@H](CNC)C(C)C)NC[C@@H](C)c1ccc(CC(C)C)cc1,active: -78.1%
13,CCc1ccc(N(C(=O)CNC(=O)c2ccco2)C(C(=O)NC2CCCC2)c2cccnc2)cc1 (centres undefined),inconclusive: -44.4%
14,C#CCOCCOCCOCCNc1nc(N2CCN(C(=O)Cn3cc(CCCN=C(N)N)nn3)CC2)nc(N2CCN(C(=O)Cn3cc(CC(C)O)nn3)CC2)n1 (centres undefined),inconclusive: -59.5%
15,Cc1ccc(NC(=O)c2cccc(S(=O)(=O)N3CCc4ccccc4C3)c2)nc1,inactive: -9.3%
16,O=C(Cc1ccc(Cl)cc1)NCC(=O)N1CCCCCC1,inactive: 25%
17,COc1ccc2cc(C(=O)C3CCCN(Cc4cnc(N5CCOCC5)s4)C3)ccc2c1 (centres undefined),active: -65.3%
18,CC1CCN(CCCNC(=O)c2cc3c(Cl)nc4ccccc4c3s2)CC1,active: -91.4%
19,CCOc1ccc(S(=O)(=O)N2CCN(Cc3ccccc3)CC2)c2cccnc12,inconclusive: -42.8%
20,CN(C)S(=O)(=O)c1ccc(Cl)c(NC(=O)CN2CCCCCC2)c1,inconclusive: -47.2%
21,N#C/C(=C/c1ccccc1[N+](=O)[O-])c1nnc2n1CCCCC2,active: -60.3%

row,Compound,"activity change, negative = inhibition"
1,CCn1cc(/C=N\NC(=O)c2ccc(F)cc2)cn1,inconclusive: -41.1%
2,CCCN(CC(=O)Nc1ccccc1C)C(=O)C1CCN(S(=O)(=O)c2ccc(C)c(C)c2)CC1,active: -61.4%
3,Cc1nc(N2CCN(Cc3ccccc3)CC2)c(C#N)c2c1COC(C)(C)C2,inconclusive: -44.8%
4,CCOC(=O)c1ccc(NC(=O)c2nccnc2C(=O)O)cc1,active: -74.5%
5,Cc1c(OCC(=O)NCC(O)c2ccccc2)ccc2c3c(c(=O)oc12)CCCC3 (centres undefined),inconclusive: -41.3%
6,CCc1ccc2c(c1)-c1ccccc1S(=O)(=O)N2CC(=O)N1CCC(C)CC1,inactive: 37.2%
7,Cc1ccc(OCC(=O)N/N=C/c2ccccc2)c([N+](=O)[O-])c1,inconclusive: -56.5%
8,OC(COc1ccccc1)CN1CCN(c2cccc(Cl)c2)CC1 (centres undefined),inconclusive: -58.1%
9,Cc1cc(C)c(C(=O)CSc2n[nH]c(=O)n2C2CC2)cc1C,inconclusive: -46.3%
10,CCc1nc(NCc2ccccc2)c(C#N)c2c1CCCC2,inconclusive: -50.1%
11,COc1ccc(CCNC(=O)C/C(C)=N/NC(=O)Cc2cccc3ccccc23)cc1OC,inconclusive: -55%
12,O=C(Cc1cccc2ccccc12)NNC(=O)Nc1ccc(Cl)cc1,inconclusive: -52.3%
13,COc1ccc(OC)c(NC(=O)C2CCN(C(=O)c3cccs3)CC2)c1,inconclusive: -47%
14,CC(=O)OCC1(C)CN(c2ccccc2)N(C(C)=O)C1=O (centres undefined),inconclusive: -44.2%
15,CCCc1cnc(N2CCN(C(=O)c3ccccc3)CC2)nc1,inconclusive: -41.4%
16,O=C(Nc1cccc(O)c1)c1cccc(S(=O)(=O)N2CCCCCC2)c1,inconclusive: -43.1%
17,COc1ccc(/C=C2\SC(=O)N(CCNC(=O)Cc3coc4cc(OC)ccc34)C2=O)cc1,active: -103%
18,COc1ccc(CC(=O)Nc2ccc(-c3csc(C)n3)cc2)cc1,inconclusive: -48.3%
19,C[C@@H]1CCCCO[C@H](CN(C)Cc2ccc(Cl)c(Cl)c2)[C@H](C)CN([C@@H](C)CO)C(=O)c2cc(NC(=O)Nc3ccc(F)cc3)ccc2O1,inconclusive: -57.9%
20,CC(=O)Nc1cccc(Oc2ncnc3scc(-c4ccc(C(C)C)cc4)c23)c1,inconclusive: -49.8%
21,COc1ccc(NC(=S)NC(=O)c2csnn2)cc1,inconclusive: -43.4%

row,Compound,"activity change, negative = inhibition"
1,Cc1ccc(C)c(NC(=O)CCC(=O)NNC(=S)Nc2ccccc2)c1,inconclusive: -44.6%
2,N#C/C(=C\c1ccc(O)cc1)C(=O)O (tested in a mixture with another compound),inconclusive: -43%
3,CN(C/N=C(\N)N[N+](=O)[O-])S(=O)(=O)c1ccccc1,inconclusive: -46.5%
4,Cc1nc(N2CCOCC2)c2c(C)c(C(=O)Nc3ccccc3Cl)sc2n1,inconclusive: -40.6%
5,COc1cccc(C(=O)COc2ccccc2-c2ccccc2)c1,inconclusive: -48.9%
6,CN(C)c1ccc(CCc2ccc(N)cc2)cc1,inconclusive: -50.2%
7,CC(C)(C)c1ccc(OCC(=O)Nc2ccc3c4c(cccc24)C(=O)NC3=O)cc1,inconclusive: -41.3%
8,COC(=O)c1cccc(C23CC4(C2)[C@H](CN(Cc2ccc(C(F)(F)F)cc2)[C@@H]4c2ccccc2)C3c2ccc(C(F)(F)F)cc2)c1 (some centres undefined),active: -94.2%
9,COc1ccc(C(C)(NC(C)=O)c2nc(/C=C/c3ccccc3)cs2)cc1 (centres undefined),inactive: -1.23%
10,N#Cc1c(NC(=O)COC(=O)c2ccc(O)cc2O)sc2c1CCC2,inconclusive: -50.1%
11,CCOc1ccc2c(c1)C(C)=CC(C)(C)N2S(=O)(=O)c1ccc(C)cc1,active: -79.1%
12,O=C(CN1CCCCC1)Nc1nc(-c2ccc(F)c(F)c2)cs1,inconclusive: -42.5%
13,CC[n+]1ccccc1/C=C1\Sc2ccc(C)cc2N1C,active: -97.3%
14,CCn1cc(C(=O)NCc2ccccc2)c2ccccc21,inconclusive: -51.6%
15,CCCC(=O)NC(c1ccccc1Cl)c1ccc2cccnc2c1O (centres undefined),active: -97.3%
16,C/C(CC(=O)Nc1cccnc1)=N\NC(=O)c1ccc([N+](=O)[O-])c(Cl)c1,inconclusive: -49.7%
17,Cc1ccc(C(=O)N2CCCC(CCC(=O)N3CCN(c4ccccn4)CC3)C2)cc1C (centres undefined),inconclusive: 0%
18,CC(C)(C)C(=O)Nc1nnc(SCC(=O)NCc2cccs2)s1,inactive: 35.4%
19,C/C(=C\C(=O)c1ccccc1)NNC(=O)c1ccc(Cl)cc1,active: -73.3%
20,CCN1CCN(C(=O)CN(c2ccc(F)cc2)S(=O)(=O)c2ccc(OC)c(OC)c2)CC1,inconclusive: -45%
21,COc1cc(OC)cc(C(=O)NC2CCSC2=O)c1 (centres undefined),inactive: -0.77%

row,Compound,"activity change, negative = inhibition"
1,CCCn1c2ccccc2c2cnn(CC(=O)NCCCN3CCCC(C)C3)c(=O)c21 (centres undefined),active: -65.5%
2,Cc1c(Cl)cccc1NC(=S)N1CCN(C(=O)C2CCCO2)CC1 (centres undefined),inconclusive: -43.6%
3,COc1c(C=O)cc2c3c1CCCN3CCC2,inactive: -36%
4,CCCC(=O)Nc1nn(CC(C)C)c2nc3cc(C)ccc3cc12,inconclusive: -46.3%
5,O=C(NCc1cccnc1)C1CCCN(S(=O)(=O)c2cccc3nsnc23)C1 (centres undefined),inconclusive: -57.8%
6,CC(=O)c1ccccc1NC(=O)CCN1C(=O)C2CCCCC2C1=O (centres undefined),inactive: 17.8%
7,Cc1cc(C)c(CN2CCN(CCCn3ccc(NC(=O)OCc4ccccc4)nc3=O)CC2)c(C)c1,inactive: -26.6%
8,O=C(Nc1ccc(O)c(-c2nc3ccccc3o2)c1)C1(c2ccc(Br)cc2)CCCC1,inconclusive: -51.3%
9,COC(=O)c1ccc(COc2ccc(/C=N/NC(N)=S)cc2)o1,inconclusive: -41.5%
10,O=C(CSc1ncnc2c1oc1ccccc12)NCc1ccco1,inactive: 40.9%
11,CCOC(=O)c1nnn(-c2nonc2-n2cccc2)c1C,inactive: 17.8%
12,O=C(NC1CC1)C1=C[C@@H](c2ccccc2)C[C@@H](OCCCCO)O1,inconclusive: -59.5%
13,COc1ccccc1NC(=O)Nc1nc(CC(=O)N2CCN(c3ccc(F)cc3)CC2)cs1,inactive: -23%
14,CC[N+]1(C)[C@@H]2CC[C@H]1CC(OC(=O)[C@H]1CCC(C(=O)OC3C[C@H]4CC[C@@H](C3)[N+]4(C)CC)(c3ccccc3)c3ccccc31)C2 (some centres undefined),active: -68.6%
15,O=C(CSc1nc2ccccc2n1-c1ccccc1)Nc1ncc(Cl)cc1Cl,inconclusive: -52.9%
16,COc1ccc(-c2c(C)nn3c(Cl)c(C)c(C)nc23)cc1,inconclusive: -47.1%
17,FC(F)(F)c1cc(Cl)c2nc(-c3ccccc3)cn2c1,inactive: 151%
18,CCc1ccccc1NC(=O)COc1cccc(-n2cnnn2)c1,inconclusive: -46.8%
19,CS(=O)(=O)c1ccc2nc(NC(=O)c3ccc(Cn4cc(Br)cn4)o3)sc2c1,inactive: 48.3%
20,COc1cc(CNc2ccc3[nH]c(=O)[nH]c3c2)cc(Cl)c1OCc1ccccc1F,inconclusive: -45.6%
21,Cc1ccc(-c2nc3ccccc3[nH]2)cc1NC(=O)COc1cccc(C)c1C,inconclusive: -52.7%

# Structures above with a tert-butyl group:
row,Compound,"activity change, negative = inhibition"
7,CC(C)(C)c1ccc(OCC(=O)Nc2ccc3c4c(cccc24)C(=O)NC3=O)cc1,inconclusive: -41.3%
18,CC(C)(C)C(=O)Nc1nnc(SCC(=O)NCc2cccs2)s1,inactive: 35.4%
